This list was built around the results that the source calls inconclusive (neither active nor inactive); the mix of calls is not that of the screen. Potencies of inconclusive entries are doubtful fits and often do not repeat. Calls of active or inactive are those of the source. Calls follow the shape of the dose curve; as a rule, active = well fitted cell-killing curve with a large enough effect; inconclusive = small, poorly fitted or top-dose-only effect, or effect the other way; inactive = no such curve, though single readings can be large or run the other way.
test: Quantitative High-Throughput drug screen in 47 multiple myeloma cell lines against the NCATS MIPE library collection: Delta47_JCRB cell viability assay (AID 1918925; also: nearly all actives have a fitted effect of over 45% in size); settings: Delta47 myeloma viability, CellTiter-Glo ATP, 48 h; series mostly up to 45.8 µM
Procedure, shortened: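 Primary qHTS used for cherry-picking: cells at 500/well, library compounds for 48 h (37C, 5% CO2), luminescent ATP assay.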
Potency is read from the fitted curve at half-maximal effect.

SMILES | Potency
NC(=O)c1cccnc1 | inconclusive: 2.64 µM [cytotoxic, full curve, poor fit]
Nc1ccn(C2CO[C@H](CO)O2)c(=O)n1 (stereo partly specified) | inconclusive: 37.2 µM [cytotoxic, single point]
CC(=O)NCCC(=O)N[C@@H](CCC(N)=O)C(=O)N[C@@H](CO)C(=O)N[C@@H](CCC(N)=O)C(=O)N[C@@H](CCC(N)=O)C(=O)N[C@H](C(=O)N[C@@H](Cc1ccccc1)C(=O)N[C@]1(C)CCCCCCC=CCCC[C@@](C)(C(=O)N[C@@H](CCC(N)=O)C(=O)N[C@@H](CC(N)=O)C(N)=O)NC(=O)[C@H](CC(C)C)NC(=O)[C@H](CC(C)C)NC(=O)[C@@H](CCCNC(=N)N)NC(=O)[C@H](Cc2c[nH]c3ccccc23)NC(=O)[C@H](CC(C)C)NC(=O)[C@H](CC(N)=O)NC1=O)[C@H](C)O | active: 20.9 µM
Cc1cnc(NC(=O)C2=C(O)c3ccccc3S(=O)(=O)N2C)s1 | inactive
COC(=O)N[C@H](C(=O)N[C@@H](Cc1ccccc1)[C@@H](O)CN(Cc1ccc(-c2ccccn2)cc1)NC(=O)[C@@H](NC(=O)OC)C(C)(C)C)C(C)(C)C | inactive
C1COC(NC(C2CC2)C2CC2)=N1 | inconclusive: 0.0021 µM [rising, full curve, poor fit]
C=C1C(=CC=C2CCCC3(C)[C@@H]([C@H](C)C=CC=CC(O)(CC)CC)CC[C@@H]23)C[C@@H](O)C[C@@H]1O (stereo partly specified) | inconclusive: 7.43 µM [cytotoxic, partial curve, poor fit]
CCOC(=O)C(C)Oc1cccc2c(=O)n(CC(=O)Nc3ccc4c(c3)OCCO4)ccc12 (stereo unspecified) | inconclusive: 0.0019 µM [rising, full curve, poor fit]
C[C@]12CCC(=O)C=C1CC[C@@H]1[C@H]2[C@@H](O)C[C@@]2(C)[C@H]1CC[C@]2(O)C(=O)CO | inconclusive: 16.6 µM [cytotoxic, partial curve, poor fit]
COc1c2occc2cc2ccc(=O)oc12 | inactive
NS(=O)(=O)c1cc2c(cc1Cl)NC(C(Cl)Cl)NS2(=O)=O (stereo unspecified) | inconclusive: 0.118 µM [rising, full curve, poor fit]
Clc1cccc(Cl)c1NC1=NCCN1 | inactive
Cc1[nH]c(C=C2C(=O)Nc3ccc(S(=O)(=O)N(C)c4cccc(Cl)c4)cc32)c(C)c1C(=O)N1CCN(C)CC1 | active: 14.8 µM
COc1cccc(Nc2c(C(N)=O)cnc3c(C)cc(S(=O)(=O)c4cccc(C(=O)N(C)C)c4)cc23)c1 | inactive
Cn1c(NCCN(CCO)CCCc2ccc([N+](=O)[O-])cc2)cc(=O)n(C)c1=O | inconclusive: 33.2 µM [cytotoxic, single point]
N[C@@H](C(=O)N[C@@H]1C(=O)N2C(C(=O)O)=C(Cl)CS[C@H]12)c1ccccc1 | inactive
N=C(N)c1ccc2cc(OC(=O)c3ccc(N=C(N)N)cc3)ccc2c1 | inconclusive: 10.5 µM [cytotoxic, partial curve, poor fit]
COc1ccc2ccc(=O)oc2c1CC=C(C)C | inconclusive: 20.9 µM [cytotoxic, partial curve, poor fit]
COc1cc2ncn(-c3cc(OCc4ccccc4S(C)(=O)=O)c(C#N)s3)c2cc1OC | inactive
C[C@@H](O)[C@H]1C(=O)N2C(C(=O)OCOC(=O)C(C)(C)C)=C(SC3CN(C4=NCCS4)C3)[C@H](C)[C@H]12 | inactive
CCC(=O)NCC[C@@H]1CCc2ccc3c(c21)CCO3 | inactive
CC(=O)Nc1cccc(-n2c(=O)n(C3CC3)c(=O)c3c(Nc4ccc(I)cc4F)n(C)c(=O)c(C)c32)c1 | inconclusive: 0.0148 µM [rising, full curve, poor fit]
C[C@@H](NCc1cc2ccccc2[nH]1)c1cccc2ccccc12 | inconclusive: 33.2 µM [cytotoxic, single point]
CCc1c2c(nc3ccc(OC(=O)N4CCC(N5CCCCC5)CC4)cc13)-c1cc3c(c(=O)n1C2)COC(=O)[C@]3(O)CC | active: 1.32 µM
CCC[C@H]1C[C@H](C(=O)N[C@@H]([C@@H]2O[C@@H](SC)[C@@H](O)[C@@H](O)[C@@H]2O)[C@H](C)Cl)N(C)C1 | inconclusive: 0.0037 µM [rising, full curve, poor fit]
CC(=O)SC[C@@H](C)C(=O)N1CCC[C@H]1C(=O)N[C@@H](Cc1ccccc1)C(=O)O | inactive

Reformatted tab-delimited: part of the list above
SMILES	Potency
COC(=O)N[C@H](C(=O)N[C@@H](Cc1ccccc1)[C@@H](O)CN(Cc1ccc(-c2ccccn2)cc1)NC(=O)[C@@H](NC(=O)OC)C(C)(C)C)C(C)(C)C	inactive
CCc1c2c(nc3ccc(OC(=O)N4CCC(N5CCCCC5)CC4)cc13)-c1cc3c(c(=O)n1C2)COC(=O)[C@]3(O)CC	active: 1.32 µM

Source: PubChem BioAssay (NCATS)
